Source: PMC10682186
These are yes or no findings as the source states them, for the method shown. In cells and extracts the contact can be indirect. Some binding calls cover weakened binding; strength is not graded here. Blank lines part the entries; values can stand above or below the molecule they belong to.

Protein sequences, listed by entry. Tags and fused reporters are not part of them.
UniProt E9Q7E2: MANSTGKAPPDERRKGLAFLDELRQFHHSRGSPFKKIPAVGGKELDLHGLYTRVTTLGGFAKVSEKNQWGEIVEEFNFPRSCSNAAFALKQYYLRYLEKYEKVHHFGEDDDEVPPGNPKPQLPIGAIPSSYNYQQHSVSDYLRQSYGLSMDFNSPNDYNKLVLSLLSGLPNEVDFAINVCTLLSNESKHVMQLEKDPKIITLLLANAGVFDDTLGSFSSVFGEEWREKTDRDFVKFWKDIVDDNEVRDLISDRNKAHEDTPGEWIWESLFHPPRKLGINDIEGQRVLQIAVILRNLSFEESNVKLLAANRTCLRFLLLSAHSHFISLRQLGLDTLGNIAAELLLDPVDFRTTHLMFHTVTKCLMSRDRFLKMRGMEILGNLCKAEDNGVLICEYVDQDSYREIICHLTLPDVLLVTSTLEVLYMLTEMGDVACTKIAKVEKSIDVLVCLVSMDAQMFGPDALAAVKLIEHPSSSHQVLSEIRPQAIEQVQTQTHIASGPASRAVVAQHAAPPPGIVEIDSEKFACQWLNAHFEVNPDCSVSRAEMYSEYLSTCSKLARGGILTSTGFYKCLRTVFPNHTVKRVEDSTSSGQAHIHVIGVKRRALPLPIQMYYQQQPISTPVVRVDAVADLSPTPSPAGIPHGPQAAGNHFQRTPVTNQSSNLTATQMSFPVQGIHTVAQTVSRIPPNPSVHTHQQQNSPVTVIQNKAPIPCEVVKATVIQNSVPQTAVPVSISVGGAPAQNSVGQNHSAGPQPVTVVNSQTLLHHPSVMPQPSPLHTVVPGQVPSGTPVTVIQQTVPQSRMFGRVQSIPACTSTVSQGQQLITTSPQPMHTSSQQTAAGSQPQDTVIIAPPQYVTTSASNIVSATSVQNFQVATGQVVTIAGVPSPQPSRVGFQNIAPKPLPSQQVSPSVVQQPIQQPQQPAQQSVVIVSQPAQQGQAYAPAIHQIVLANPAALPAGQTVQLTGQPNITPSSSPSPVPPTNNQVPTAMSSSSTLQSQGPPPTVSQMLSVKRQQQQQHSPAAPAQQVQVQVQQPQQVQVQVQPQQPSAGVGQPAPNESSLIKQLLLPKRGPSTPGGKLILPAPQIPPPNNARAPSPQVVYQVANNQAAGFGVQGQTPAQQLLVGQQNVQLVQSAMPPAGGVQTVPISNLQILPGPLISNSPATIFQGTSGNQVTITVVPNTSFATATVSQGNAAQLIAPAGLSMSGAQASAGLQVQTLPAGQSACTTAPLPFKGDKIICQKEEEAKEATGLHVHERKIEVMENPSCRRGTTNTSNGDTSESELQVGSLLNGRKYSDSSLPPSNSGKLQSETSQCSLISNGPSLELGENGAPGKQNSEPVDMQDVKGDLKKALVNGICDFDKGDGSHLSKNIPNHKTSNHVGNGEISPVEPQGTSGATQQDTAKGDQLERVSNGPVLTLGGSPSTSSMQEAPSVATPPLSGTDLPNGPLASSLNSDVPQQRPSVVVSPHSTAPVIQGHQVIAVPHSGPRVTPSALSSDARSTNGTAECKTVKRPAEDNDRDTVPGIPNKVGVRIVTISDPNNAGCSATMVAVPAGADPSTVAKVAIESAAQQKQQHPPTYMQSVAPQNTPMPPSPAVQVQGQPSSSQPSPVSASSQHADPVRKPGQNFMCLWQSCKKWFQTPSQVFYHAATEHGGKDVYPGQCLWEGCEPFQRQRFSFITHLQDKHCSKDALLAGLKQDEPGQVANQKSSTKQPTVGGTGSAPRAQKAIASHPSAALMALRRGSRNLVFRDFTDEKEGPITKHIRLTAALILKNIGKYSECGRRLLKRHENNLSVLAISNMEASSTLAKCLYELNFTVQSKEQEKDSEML

Experiments:
[1] = molecular target: T1, PHF10A isoform of PHF10 (mouse (endogenous in brain)) (UniProt Q9D8M7); assay: co-IP; the same anti-PHF10 immunoaffinity-purified complexes (PBAF and dcPBAF from P1 and P56 brain nuclear extracts after MonoS and Superose 6), BAF200 detected by Western blot
T1 sequence: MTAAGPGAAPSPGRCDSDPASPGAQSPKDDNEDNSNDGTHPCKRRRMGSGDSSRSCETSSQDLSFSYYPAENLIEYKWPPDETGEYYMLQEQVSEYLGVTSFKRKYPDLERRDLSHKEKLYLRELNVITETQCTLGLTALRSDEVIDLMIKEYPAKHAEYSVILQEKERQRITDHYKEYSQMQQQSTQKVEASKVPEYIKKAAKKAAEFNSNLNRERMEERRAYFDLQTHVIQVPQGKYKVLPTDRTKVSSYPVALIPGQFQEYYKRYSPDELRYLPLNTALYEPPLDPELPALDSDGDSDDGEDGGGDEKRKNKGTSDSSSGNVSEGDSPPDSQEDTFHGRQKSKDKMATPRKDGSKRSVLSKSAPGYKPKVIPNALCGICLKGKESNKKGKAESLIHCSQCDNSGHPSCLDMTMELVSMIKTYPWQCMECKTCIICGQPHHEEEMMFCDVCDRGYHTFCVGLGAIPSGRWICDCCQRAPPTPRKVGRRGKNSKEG

[2] = molecular target: T1, PHF10A isoform of PHF10 (mouse (endogenous in brain)); assay: co-IP; co-immunoprecipitation from P1 and P56 mouse brain extracts with antibodies against PHF10 and, reciprocally, against BRD7 (Supplementary Figure S3); methods not shown
[3] = molecular target: T2, BRD7 (mouse (endogenous in brain)) (UniProt O88665); assay: as above
T2 sequence: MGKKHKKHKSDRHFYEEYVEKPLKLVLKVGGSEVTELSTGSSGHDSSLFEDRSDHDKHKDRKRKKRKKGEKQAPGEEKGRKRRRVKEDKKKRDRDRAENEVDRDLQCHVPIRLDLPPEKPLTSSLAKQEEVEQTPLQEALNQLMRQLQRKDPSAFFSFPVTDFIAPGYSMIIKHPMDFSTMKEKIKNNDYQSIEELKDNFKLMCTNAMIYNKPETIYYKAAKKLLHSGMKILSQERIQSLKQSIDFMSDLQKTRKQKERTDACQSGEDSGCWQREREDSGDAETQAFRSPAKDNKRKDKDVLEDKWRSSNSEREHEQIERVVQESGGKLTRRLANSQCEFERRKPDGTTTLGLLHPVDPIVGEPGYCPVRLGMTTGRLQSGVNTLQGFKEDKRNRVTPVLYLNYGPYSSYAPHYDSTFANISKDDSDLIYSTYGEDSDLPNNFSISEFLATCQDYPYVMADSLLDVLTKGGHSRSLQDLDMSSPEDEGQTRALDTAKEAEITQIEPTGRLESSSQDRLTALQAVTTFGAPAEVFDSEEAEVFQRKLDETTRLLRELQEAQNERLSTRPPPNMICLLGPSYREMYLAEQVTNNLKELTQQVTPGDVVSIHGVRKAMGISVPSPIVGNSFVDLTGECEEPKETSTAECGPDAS

binding [1]: binds
Molecule: BAF200/ARID2 (from UniProt E9Q7E2 1-1828)

binding [2]: binds
B1: BRD7 (protein, UniProt O88665 1-651)
chain: T2 sequence

binding [3]: binds
B2: PHF10A isoform of PHF10 (protein, UniProt Q9D8M7 1-497)
chain: T1 sequence
